Experimental data reported in publication PMC9095593, “On Methods for the Measurement of the Apelin Receptor Ligand Apelin” (Scientific Reports, 2022).

Assay: Spiking recovery of sample preparation (magnetic beads) from K2EDTA plasma
Set-up: species or system human
Details: HPLC-MS/MS area, n = 6

For “Apelin-36: synthetic apelin isoform of 36 amino acids, purchased from CPC Scientific / Phoenix Pharmaceuticals (LVQPRGSRNGPGPWQGGRRKFRRQRPRLSHKGPMPF; Apelin-36; UniProt Q9ULZ1 42-77, looked up)”, the “Recovery % (area) Mean ± stdev, Plasma pH2.5” value (K2EDTA plasma stored at pH 2.5, fixed concentration added before magnetic beads vs into the eluent) was 75.02 ± 7.46%, the “Recovery % (area) Mean ± stdev, Plasma pH 4.5” value (K2EDTA plasma stored at pH 4.5, fixed concentration added before magnetic beads vs into the eluent) was 83.15 ± 11.87% and the “Recovery % (area) Mean ± stdev, Plasma” value (K2EDTA plasma without acidification, fixed concentration added before magnetic beads vs into the eluent) was 83.34 ± 3.66%.
